{"source": "PubChem BioAssay AID1347076", "about": "(National Center for Advancing Translational Sciences (NCATS), 2019)", "note": "Out of some 400,000 compounds screened, about 13,000 (3.2%) were called active. The shares of active, inactive and inconclusive entries below differ from those in the screen. Calls come from the whole dose curve; as a rule, active = well fitted cell-killing curve with a large enough effect; inconclusive = small, poorly fitted or top-dose-only effect, or effect the other way; inactive = flat fitted curve, though single readings scatter. A potency beside an inconclusive call is a rough fit, not a confirmed value. Potency is the fitted concentration of half-maximal effect."}
{"test": "qHTS assay for MDR1-selective chemotherapeutics: Primary screen using the drug-selected MDR subline cells KB-V1; note: nearly all actives have a fitted effect of over 60% in size", "conditions": "KB-V1 MDR cells viability, CellTiter-Glo, 72 h; series mostly up to 46.1 µM", "method_in_brief": "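In this primary screen, KB-V1 cells overexpressing P-gp are incubated with library compounds (lowest to highest concentration) for 72 h at 37 degrees C before a luminescent ATP viability read.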"}
{"smiles": "CCN(C(=O)COC(=O)c1c(C)nn(-c2ccccc2)c1C)C1CCS(=O)(=O)C1", "note": "(centres undefined)", "Potency": "inactive"}
{"smiles": "N#CCCn1nc(-c2ccccc2)cc1-n1c(C(F)(F)F)nc2ccccc21", "Potency": "inconclusive: 29.1 µM [cytotoxic, single point]"}
{"smiles": "COc1cc2c(C#N)c(N3CCN(c4ccccc4OC)CC3)nc(N)c2c(N)n1", "Potency": "inconclusive: 23.1 µM [cytotoxic, partial curve, poor fit]"}
{"smiles": "Cc1nn(C(=O)c2ccccc2)c(C)c1Sc1ccc(Cl)cc1", "Potency": "active: 7.31 µM"}
{"smiles": "O=C1C=C(c2ccc3ccccc3c2)C[C@@H](c2ccc(F)cc2)C1", "Potency": "inactive"}
{"smiles": "Cc1ccc([C@@H]2CC(=O)[C@@H]3CN(S(=O)(=O)c4ccccc4C)[C@H](c4ccc(Cl)cc4)C[C@@H]3N2S(=O)(=O)c2ccc(C)cc2)cc1", "Potency": "inconclusive: 0.0073 µM [rising, full curve, poor fit]"}
{"smiles": "CC(C)(C)c1cc(NCc2ccccn2)n2ncc(-c3ccccc3)c2n1", "Potency": "inconclusive: 20.6 µM [cytotoxic, single point]"}
{"smiles": "CC1=C(C(=O)N(C(C)C)C(C)C)CC(CC(=O)NC(c2ccccc2)c2ccccc2)C(=O)N1CCC1=CCCCC1", "note": "(centres undefined)", "Potency": "inconclusive: 29.1 µM [cytotoxic, single point]"}
{"smiles": "O=S(=O)(Nc1cccc2c1ccc1cccn12)c1cccs1", "Potency": "inactive"}
{"smiles": "Cc1nc(C)c(-c2ccc(SCC(=O)Nc3cccc(F)c3)nn2)s1", "Potency": "inconclusive: 4.11 µM [cytotoxic, full curve]"}
{"smiles": "O=C(CSCc1ccco1)Nc1cc(C(F)(F)F)ccc1N1CCOCC1", "Potency": "inconclusive: 13 µM [cytotoxic, partial curve]"}
{"smiles": "COC(=O)c1ccc(C)c(NS(=O)(=O)c2ccc(OC)cc2)c1", "Potency": "active: 1.03 µM"}
{"smiles": "Cc1c(C(=O)NCCc2ccc(S(N)(=O)=O)cc2)cccc1[N+](=O)[O-]", "Potency": "inconclusive: 11.6 µM [rising, partial curve]"}
{"smiles": "COc1ccc(C2CC(c3ccccc3C(F)(F)F)=NN2c2ccc(S(N)(=O)=O)cc2)cc1", "note": "(centres undefined)", "Potency": "inconclusive: 23.1 µM [cytotoxic, single point]"}
{"smiles": "CCOc1ccccc1C1NC(=O)CCC1[N+](=O)[O-]", "note": "(centres undefined)", "Potency": "inconclusive: 14.6 µM [rising, partial curve, poor fit]"}
{"smiles": "CCCNC(=O)c1cccc(Cn2cc(Br)c([N+](=O)[O-])n2)c1", "Potency": "inconclusive: 18.4 µM [cytotoxic, single point]"}
{"smiles": "O=C(CN1CCC(C(=O)c2ccc3c(c2)OCCO3)CC1)NCc1ccccc1", "Potency": "inconclusive: 7.31 µM [cytotoxic, partial curve]"}
{"smiles": "Cc1ccccc1OCC(O)Cn1c(SC(C)C)nc2c1c(=O)[nH]c(=O)n2C", "note": "(centres undefined)", "Potency": "inconclusive: 18.4 µM [cytotoxic, single point]"}
{"smiles": "COc1ccc(C(C)=O)cc1CSc1nnnn1-c1ccc(O)cc1", "Potency": "inconclusive: 20.6 µM [cytotoxic, single point]"}
{"smiles": "COc1ccc(S(=O)(=O)Nc2cccc3c2O[C@H](CN(C)CC2CCCCC2)[C@@H](C)CN([C@H](C)CO)C3=O)cc1", "Potency": "inactive"}
{"smiles": "CCOc1ccc(NC(=O)CCCc2nc(-c3cccc(OC)c3)no2)cc1", "Potency": "inactive"}
{"smiles": "CN(C)c1ccc(Nc2cc(Cl)ncn2)cc1", "Potency": "inactive"}
{"smiles": "CC(NC(=O)c1ccc(S(C)(=O)=O)cc1)c1cccc2ccccc12", "note": "(centres undefined)", "Potency": "inconclusive: 20.6 µM [cytotoxic, partial curve]"}
{"smiles": "CC(=O)Nc1sc(C)c(C)c1C(=O)OCC(=O)N(C)c1c(N)n(Cc2ccccc2)c(=O)[nH]c1=O", "Potency": "inconclusive: 16.4 µM [rising, single point]"}
{"smiles": "Cc1nc2ccc(Oc3ccccc3)cc2s1", "Potency": "inconclusive: 29.1 µM [rising, single point]"}
{"smiles": "CC(C(=O)N1CCCCCC1)N(c1ccc(Cl)cc1)S(C)(=O)=O", "note": "(centres undefined)", "Potency": "inconclusive: 29.1 µM [cytotoxic, single point]"}
{"smiles": "O=C(Nc1nc(-c2ccncc2)cs1)c1ccco1", "Potency": "inconclusive: 35.5 µM [cytotoxic, single point]"}
{"smiles": "O=P(CCCCCCCCCP(=O)(c1ccccc1)c1ccccc1)(c1ccccc1)c1ccccc1", "Potency": "active: 14.6 µM"}
{"smiles": "Cc1ccc2oc(-c3cccc(NC(=O)c4ccc(Br)o4)c3)nc2c1", "Potency": "inconclusive: 29.1 µM [cytotoxic, single point]"}
{"smiles": "Cc1cc2c(c(=O)o1)C(C13C=CC(CC1)C3)C(C#N)=C(N)O2", "note": "(centres undefined)", "Potency": "inconclusive: 13 µM [rising, partial curve, poor fit]"}
{"smiles": "CCCCC[C@@H](C)N1C[C@H](COCc2ccccc2)Oc2cc(N3CCC[C@@H]3CO)ccc2S1(=O)=O", "Potency": "inactive"}
{"smiles": "O=C(/C=C/c1ccc(-c2ccc(F)cc2)o1)N1CCCC1", "Potency": "inactive"}
{"smiles": "COCCCNC(=O)c1ccc(Cn2c(=O)c3ccccc3n(CC(N)=O)c2=O)cc1", "Potency": "inconclusive: 23.1 µM [rising, partial curve, poor fit]"}
{"smiles": "COc1ccc(-c2csc(NC(=O)CCS(=O)(=O)c3ccccc3)n2)c(OC)c1", "Potency": "inconclusive: 18.4 µM [cytotoxic, single point]"}
{"smiles": "COc1ccc2nc(NC3=NC(c4ccccc4)CC(=O)N3)nc(C)c2c1", "note": "(centres undefined)", "Potency": "inactive"}
{"smiles": "CCOc1ccccc1NC(=O)CN(c1ccc(C)cc1)S(=O)(=O)c1c(C)n[nH]c1C", "Potency": "inconclusive: 29.1 µM [cytotoxic, single point]"}
{"smiles": "CCOC(=O)c1ccc(NC(=O)CSc2nc3ncc(Br)c(C)c3[nH]2)cc1", "Potency": "inactive"}
{"smiles": "CN(C)c1nc(NCc2ccccc2)nc(SCC(N)=O)n1", "Potency": "inactive"}
{"smiles": "Cc1cc(C)nc(NCCO)n1", "Potency": "inactive"}
{"smiles": "Cc1c(NC(=O)COC(=O)C(c2ccc(Cl)cc2)C(C)C)c(=O)n(-c2ccccc2)n1C", "note": "(centres undefined)", "Potency": "active: 8.2 µM"}
{"smiles": "Cc1csc2cc(-c3cccc([N+](=O)[O-])c3)c(-c3cccc([N+](=O)[O-])c3)c[n+]12", "Potency": "inactive"}
{"smiles": "CCOC(=O)C1CCCN(C(=O)CC(c2ccccc2)c2ccccc2)C1", "note": "(centres undefined)", "Potency": "inconclusive: 18.4 µM [cytotoxic, single point]"}
{"smiles": "CS(=O)(=O)N(Cc1ccccc1)c1ccc(C(=O)NCCSc2ccccn2)cc1", "Potency": "inconclusive: 11.6 µM [cytotoxic, partial curve]"}
{"smiles": "CNc1cc(Cl)nc(SC)n1", "Potency": "inconclusive: 29.1 µM [rising, single point]"}
{"smiles": "O=C(CSC(=S)N1CCCCC1)N1N=CCC1c1ccccc1", "note": "(centres undefined)", "Potency": "inconclusive: 16.4 µM [cytotoxic, single point]"}
{"smiles": "CC(C)c1ccc2oc(-c3ccc(Cl)c(NC(=O)c4cccs4)c3)nc2c1", "Potency": "inconclusive: 16.4 µM [cytotoxic, partial curve]"}
{"smiles": "Oc1[nH]c2ccc(Br)cc2c1N=NC(=S)Nc1ccc(F)cc1", "Potency": "inconclusive: 16.4 µM [cytotoxic, single point]"}
{"smiles": "Cc1ccc(-n2c(C)cc(/C=C3/SC(=O)N(CC(=O)N4CCOCC4)C3=O)c2C)nc1", "Potency": "inactive"}
{"smiles": "COc1ccc(/C=N/NC(=O)CN(CCc2ccccc2)S(=O)(=O)c2ccc(NC(C)=O)cc2)cc1OC", "Potency": "inconclusive: 1.84 µM [rising, single point]"}
{"smiles": "CC[C@@]1(C(=O)OC)N[C@H](CN(C)C(=O)COC)[C@@H]2C(=O)N(C)C(=O)[C@@H]21", "Potency": "inactive"}
{"smiles": "CC(=O)Nc1ccc(Nc2ncnc3c2cnn3-c2ccccc2)cc1", "Potency": "inconclusive: 18.4 µM [cytotoxic, partial curve]"}
{"smiles": "O=[N+]([O-])c1cccc2ccc(/C=C/c3ccc(Cl)cc3)nc12", "Potency": "inconclusive: 20.6 µM [cytotoxic, single point]"}
{"smiles": "CC(=O)C1=C(C)NC(SCC(=O)c2ccc(Cl)cc2)=C(C#N)C1c1ccco1", "note": "(centres undefined)", "Potency": "active: 20.6 µM"}
{"smiles": "Cn1nc(-c2ccc(OCC(=O)Nc3cccc(C(F)(F)F)c3)cc2)c2ccccc2c1=O", "Potency": "inactive"}
{"smiles": "Cc1[nH]ccc2c1[nH]c1cc(=O)ccc12", "Potency": "inactive"}
{"smiles": "COc1ccc(NC(=S)N(CCN2CCCCC2)Cc2ccco2)cc1", "Potency": "inconclusive: 9.2 µM [cytotoxic, partial curve]"}
{"smiles": "COc1ccc(-c2cc(NC=O)c3ncc(-c4cc(OC)c(OC)c(OC)c4)n3c2)c(OC)c1", "Potency": "inconclusive: 2.06 µM [cytotoxic, full curve]"}
{"smiles": "CCOC(=O)N1CCC(Nc2c(N3CCN(c4cccc(C(F)(F)F)c4)CC3)c(=O)c2=O)CC1", "Potency": "inactive"}
{"smiles": "Cc1nc2ccc(S(=O)(=O)Nc3ccccc3C)cc2s1", "Potency": "active: 18.4 µM"}
{"smiles": "COc1cccc(/C=C/C(=O)c2ccc(NS(=O)(=O)c3ccc(C)cc3)cc2)c1", "Potency": "inconclusive: 18.4 µM [cytotoxic, partial curve, poor fit]"}
{"smiles": "Cc1ccc2c(c1)c1c3n2CCN(CC(N)=O)C3CCC1", "note": "(centres undefined)", "Potency": "inconclusive: 18.4 µM [cytotoxic, single point]"}
{"smiles": "COc1ccc(C)cc1NC(=O)CSc1nc2scc(C)c2c(=O)[nH]1", "Potency": "inactive"}
{"smiles": "COc1ccc(NC(=O)CSc2ccc(-c3cccnc3)nn2)c(OC)c1", "Potency": "inconclusive: 6.51 µM [cytotoxic, partial curve, poor fit]"}
{"smiles": "Cc1ccc(NC(=O)O/N=C/c2ccc(Br)cc2)cc1", "Potency": "inconclusive: 6.51 µM [rising, partial curve]"}
{"smiles": "Cc1cc2c(cc1C)C(c1ccsc1)CC(=O)N2", "note": "(centres undefined)", "Potency": "inactive"}
{"smiles": "Cc1ccc(S(=O)(=O)N2c3ccccc3OCC2C(C)(C)C)cc1", "note": "(centres undefined)", "Potency": "inconclusive: 29.1 µM [cytotoxic, single point]"}
{"smiles": "Cc1cccc(NC(=O)Cn2nnc(-c3cccs3)n2)c1C", "Potency": "inconclusive: 13 µM [cytotoxic, partial curve]"}
{"smiles": "Oc1ccc(Br)cc1-c1ccnn1-c1ccccc1", "Potency": "inconclusive: 20.6 µM [cytotoxic, single point]"}
{"smiles": "COc1ccccc1CNc1nc2cc(-c3ccsc3)sc2c(=O)n1C", "Potency": "active: 20.6 µM"}
